Conditions: 0.01 M phosphate buffer pH=6, 1000 ml, 50 RPM, 50 mg active, 37°C, 3 capsules/formulation

COc1ccc2cc([C@H](C)C(=O)O)ccc2c1 [Naproxyn, (S)-6-methoxy-α-methyl-2-naphthaleneacetic acid]
% Dissolved at 30 minutes: 57.1 +/- 18.5%

— EP0996436B1, “PHARMACEUTICAL FORMULATIONS CONTAINING POORLY SOLUBLE DRUG SUBSTANCES” (Sanofi-Aventis, priority 1997, dated 1998)
